The source of these data is patent US20070155720A1, “Co-administration of dopamine-receptor binding compounds” (DarPharma, Inc., priority 2003, published 2007).

This test has as its system patients with schizophrenia. Conditions: 6 subjects on stable atypical antipsychotics, 12 weeks, blind cross-over.

In the case of `COc1cc2c(cc1OC)C(=O)C(CC1CCN(Cc3ccccc3)CC1)C2` (stereo not shown) [Donepezil], the “Brain activity (BOLD fMRI) compared to placebo and baseline scans” value is “functional normalization with an increase in leftfrontal lobe and cingulate activity”.
